Measured data: PubChem BioAssay AID504795 (Drosophila RNAi Screening Center, 2011)
The reagents shown are a selection, not the whole library. 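Every listed dsRNA shows some phenotype; how reagents were selected for listing is not stated.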 Names joined by + are all predicted targets of the reagent.

- Purpose: 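Fly genes whose loss alters neurite growth or neural cell form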 (primary screen)
- Cells: primary Drosophila neurons and glia
- Reagent: long dsRNA against Drosophila genes, 250 ng dsRNA per well
- Time to read-out: one week
- Detection: 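GFP-labelled neurons and glia imaged live by automated microscope one week after 250 ng dsRNA per well; morphology scored by eye as descriptive phenotype terms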

predicted target | amplicon | phenotype seen, replicate 1 | phenotype seen, replicate 2
Smyd4-1 (SET and MYND domain containing, class 4, member 1) | DRSC06785 | axon bundles split apart | –
zip (zipper) | DRSC04725 | too many neurite branches | –
eIF3f1 (eukaryotic translation initiation factor 3 subunit f1) | DRSC12328 | too many neurite branches | –
Polr3K + Tcs1 | DRSC05988 | axon bundles split apart | –
CG12590 | DRSC12216 | abnormal cell clusters | –
CG8891 | DRSC03120 | axon bundles split apart | –
Alg13 (Alg13 UDP-N-acetylglucosaminyltransferase subunit) | DRSC14864 | reduced axon outgrowth | –
CG8301 | DRSC16405 | too many neurite branches | –
Ccdc114 (Coiled-coil domain containing protein 114) | DRSC15025 | abnormal cell clusters | –
Liprin-beta | DRSC09795 | abnormal cell clusters | –
CG8483 | DRSC16430 | too many neurite branches | –
CG9393 | DRSC16486 | axon bundles split apart | –
CG8888 | DRSC07295 | sheet-like cell extensions | –
CG13130 (retired record) | DRSC02226 | too many neurite branches | –
CG6356 | DRSC16026 | axon bundles split apart | –
CG32085 | DRSC10138 | abnormal cell clusters | –
Pngl (PNGase-like) | DRSC04914 | abnormal cell clusters | –
ghi (ghiberti) | DRSC08985 | sheet-like cell extensions | –
CG11334 | DRSC14302 | too many neurite branches | –
CG42527 (retired record) + Hr4 | DRSC18495 | axon bundles split apart | –
wcy (wacky) | DRSC20132 | cell fragments present | –
Spc25 | DRSC14164 | sheet-like cell extensions | –
CG12341 | DRSC06133 | too many neurite branches | –
His2B:CG33870 + His2B:CG33868 + His2B:CG33882 + 21 more | DRSC03757 | fewer cells | –
CG2811 | DRSC04318 | weaker green signal | –
trv (trivet) | DRSC14561 | axon bundles split apart | –
CG13332 | DRSC06367 | abnormal cell clusters | –
CG16787 | DRSC04282 | too many neurite branches | –
CG17493 | DRSC03798 | fewer cells | –
CG7272 | DRSC10795 | too many neurite branches | –
CG6793 | DRSC10714 | beaded; swollen axons | –
CG18507 | DRSC01914 | too many neurite branches | –
CG14459 | DRSC11719 | too many neurite branches | –
CG13010 | DRSC19529 | too many neurite branches | –
Tpst (Tyrosylprotein sulfotransferase) | DRSC19724 | too many neurite branches | –
Sema1a (Semaphorin 1a) | DRSC03433 | axon bundles split apart | –
CG15296 | DRSC17983 | sheet-like cell extensions | –
CG6149 | DRSC10593 | cell fragments present | –
Eb1 | DRSC05016 | sheet-like cell extensions | –
Ccp84Ad | DRSC12589 | too many neurite branches | –
SmydA-6 (SET and MYND domain containing, arthropod-specific, member 6) | DRSC07341 | too many neurite branches | –
Vang (Van Gogh) | DRSC07570 | fewer cells | –
CG31373 | DRSC16052 | sheet-like cell extensions | –
CG17122 | DRSC10245 | abnormal cell clusters | –
hoka | DRSC08313 | axon bundles split apart | –
CG32409 | DRSC08780 | sheet-like cell extensions | –
lbe (ladybird early) | DRSC16985 | axon bundles split apart | –
SmD2 (Small ribonucleoprotein particle protein SmD2) | DRSC12536 | beaded; swollen axons | –
Rok (Rho kinase) | DRSC20277 | too many neurite branches | –
CG10413 | DRSC02052 | axon bundles split apart | –
mRpL41 (mitochondrial ribosomal protein L41) | DRSC06257 | fewer cells | –
IP3K2 (Inositol 1,4,5-triphosphate kinase 2) | DRSC19747 | abnormal cell clusters | –
blp (black pearl) | DRSC15757 | axon bundles split apart | –
CG42245 + MEP-1 | DRSC07993 | sheet-like cell extensions | –
morgue (modifier of rpr and grim, ubiquitously expressed) | DRSC00264 | axon bundles split apart | –
CG42518 + MED9 | DRSC06917 | axon bundles split apart | –
RpLP2 (Ribosomal protein LP2) | DRSC07539 | sheet-like cell extensions | –
RpL37-1 (Ribosomal protein L37-1) | DRSC20149 | sheet-like cell extensions | –
RpL37-1 (Ribosomal protein L37-1) | DRSC21646 | too many neurite branches | axon bundles split apart
KP78a + KP78b | DRSC16721 | abnormal cell clusters | –
CG13437 | DRSC06397 | axon bundles split apart | –
dyl (dusky-like) | DRSC08467 | axon bundles split apart | –
CG17198 + CG17197 | DRSC15191 | axon bundles split apart | –

Records above whose gene name begins with R or r:
predicted target | amplicon | phenotype seen, replicate 1 | phenotype seen, replicate 2
Rok (Rho kinase) | DRSC20277 | too many neurite branches | –
RpLP2 (Ribosomal protein LP2) | DRSC07539 | sheet-like cell extensions | –
RpL37-1 (Ribosomal protein L37-1) | DRSC20149 | sheet-like cell extensions | –
RpL37-1 (Ribosomal protein L37-1) | DRSC21646 | too many neurite branches | axon bundles split apart

Continued.
predicted target | amplicon | phenotype seen, replicate 1 | phenotype seen, replicate 2
Muc4B (Mucin 4B) | DRSC18063 | reduced axon outgrowth | –
moody | DRSC18515 | sheet-like cell extensions | –
Dus2 (Dihydrouridine synthase 2) | DRSC19591 | axon bundles split apart | –
CG14671 | DRSC12257 | abnormal cell clusters | –
Sox15 (Sox box protein 15) | DRSC07555 | fewer cells | –
CheB93b (Chemosensory protein B 93b) | DRSC21762 | reduced axon outgrowth | –
CG32425 | DRSC11739 | axon bundles split apart | –
CG14491 | DRSC06462 | too many neurite branches | –
CG32488 | DRSC21537 | axon bundles split apart | –
CG14478 | DRSC06450 | sheet-like cell extensions | –
egg (eggless) | DRSC22534 | fewer cells | too many neurite branches
chp (chaoptin) | DRSC16925 | axon bundles split apart | –
HmgZ (HMG protein Z) | DRSC03888 | abnormal cell clusters | –
HmgZ (HMG protein Z) | DRSC04620 | fewer cells | –
CG10660 | DRSC09769 | cell fragments present | weaker green signal
TwdlK (TweedleK) | DRSC16045 | sheet-like cell extensions | –
FBXO11 (F-box protein 11) | DRSC16497 | sheet-like cell extensions | –
CG40341 (retired record) | DRSC01767 | reduced axon outgrowth | –
CG11317 | DRSC14299 | axon bundles split apart | –
CG17742 (retired record) | DRSC10285 | sheet-like cell extensions | –
Miox (Myo-inositol oxygenase) | DRSC10747 | too many neurite branches | –
Klc (Kinesin light chain) | DRSC11203 | beaded; swollen axons | –
CG31050 | DRSC13883 | abnormal cell clusters | –
Rdh (Red herring) | DRSC08063 | sheet-like cell extensions | –
CG14787 | DRSC18606 | sheet-like cell extensions | –
Cog2 (Component of oligomeric golgi complex 2) | DRSC16987 | abnormal cell clusters | –
MED25 (Mediator complex subunit 25) | DRSC14483 | too many neurite branches | –
CG34299 | DRSC13974 | beaded; swollen axons | –
Irk2 (Inwardly rectifying potassium channel 2) | DRSC15569 | cell fragments present | –
Mlp60A (Muscle LIM protein at 60A) | DRSC04623 | abnormal cell clusters | –
CG15650 | DRSC04241 | axon bundles split apart | –
Rgk1 (retired record) | DRSC07344 | axon bundles split apart | –
DIP-zeta (Dpr-interacting protein zeta) | DRSC02203 | beaded; swollen axons | –
DIP-zeta (Dpr-interacting protein zeta) | DRSC02204 | axon bundles split apart | –
Obp56i (Odorant-binding protein 56i) | DRSC05812 | axon bundles split apart | –
Gr64a (Gustatory receptor 64a) | DRSC21713 | too many neurite branches | –
Nf-YC (Nuclear factor Y-box C) | DRSC18272 | axon bundles split apart | –
CG30065 | DRSC05420 | too many neurite branches | –
ClC-a (Chloride channel-a) | DRSC14948 | too many neurite branches | –
RpL7-like + CG34164 | DRSC02836 | too many neurite branches | –
RpL7-like + CG34164 | DRSC02837 | too many neurite branches | –
Hr38 (Hormone receptor-like in 38) | DRSC03345 | abnormal cell clusters | –
CG5050 | DRSC02807 | too many neurite branches | –
I-t (inhibitor-t) | DRSC16713 | reduced axon outgrowth | –
CG9135 | DRSC03144 | reduced axon outgrowth | –
CG15831 (retired record) | DRSC20816 | fewer cells | –
CG14985 | DRSC08078 | abnormal cell clusters | –
CG13743 | DRSC05139 | reduced axon outgrowth | –
Polr3F (RNA polymerase III subunit F) | DRSC15785 | too many neurite branches | –
CG17364 | DRSC10270 | reduced axon outgrowth | axon bundles split apart
Tpr2 (Tetratricopeptide repeat protein 2) | DRSC03461 | reduced axon outgrowth | –
HmgD (High mobility group protein D) | DRSC04619 | axon bundles split apart | –
CG10943 | DRSC09805 | reduced axon outgrowth | –
Flad1 (Flavin adenine dinucleotide synthetase 1) | DRSC19898 | too many neurite branches | –
twe (twine) | DRSC03628 | sheet-like cell extensions | –
exp (expansion) | DRSC06313 | axon bundles split apart | –
CG3592 | DRSC18315 | abnormal cell clusters | –
EbpIII (Ejaculatory bulb protein III) | DRSC04638 | axon bundles split apart | –
CG16953 | DRSC15167 | fewer cells | –
MFS10 (Major Facilitator Superfamily Transporter 10) | DRSC19888 | sheet-like cell extensions | –
Fer1 (48 related 1) | DRSC12507 | too many neurite branches | –
Fer1 (48 related 1) | DRSC12555 | too many neurite branches | –
Toll-7 | DRSC07563 | sheet-like cell extensions | –
sns (sticks and stones) | DRSC06423 | abnormal cell clusters | –
Nadk1a (NAD kinase 1a) | DRSC05431 | axon bundles split apart | –
nxf4 (nuclear export factor 4) | DRSC12548 | axon bundles split apart | –
spaw (spacewatch) | DRSC06824 | abnormal cell clusters | –
Nnp-1 | DRSC02165 | abnormal cell clusters | –
psq (pipsqueak) | DRSC07668 | sheet-like cell extensions | –
Irbp18 (Inverted repeat binding protein 18 kDa) | DRSC10612 | sheet-like cell extensions | reduced axon outgrowth
His4:CG33885 + His4:CG33883 + His4:CG33889 + 20 more | DRSC21268 | axon bundles split apart | –
CG5323 | DRSC06929 | beaded; swollen axons | –
Fadd (Fas-associated death domain) | DRSC14122 | abnormal cell clusters | –
CG34056 | DRSC08374 | abnormal cell clusters | –
CG13003 | DRSC19522 | sheet-like cell extensions | –
